Measurements from PMC3146489.
These are yes or no findings as the source states them, for the method shown. Some results given as binding are weak or reduced against the parent protein; the word gives no strength. Tags and fused reporters may be left off the sequences shown.

Chains of the proteins cited; added tags and fusions are not shown.
UniProt P63279: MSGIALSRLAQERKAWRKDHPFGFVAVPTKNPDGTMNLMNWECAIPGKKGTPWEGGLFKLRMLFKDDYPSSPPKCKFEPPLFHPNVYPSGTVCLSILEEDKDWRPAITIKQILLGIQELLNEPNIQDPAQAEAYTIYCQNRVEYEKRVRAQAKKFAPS

Target: GST-tagged UBC9 (human) (UniProt P63279)
Experiment: pull-down; purified His-tagged N- and C-terminal PR-Set7 fragments incubated with GST-UBC9 or GST alone, GST pull-down; Western with His and GST antibodies; both purified

- binding: binds
B1: recombinant His-tagged N-terminal(1-191) fragment of PR-Set7 (domain or fragment, UniProt Q9NQR1-2 1-191)
chain: MARGRKMSKPRAVEAAAAAAAVAATAPGPEMVERRGPGRPRTDGENVFTGQSKIYSYMSPNKCSGMRFPLQEENSVTHHEVKCQGKPLAGIYRKREEKRNAGNAVRSAMKSEEQKIKDARKGPLVPFPNQKSEAAEPPKTPPSSCDSTNAAIAKQALKKPIKGKQAPRKKAQGKTQQNRKLTDFYPVRRSS
